According to publication doi:10.1101/2020.03.02.974303:
These are yes or no findings as the source states them, for the method shown. Binding seen in cells or lysates may run through a third protein. Some results given as binding are weak or reduced against the parent protein; the word gives no strength.

By UniProt entry, the sequences of proteins in these tests, tags left out. Where a name states a change or a piece, a line headed by the entry shows the natural chain unless it says otherwise.
UniProt Q969H0, whole entry, looked up, stated change not applied: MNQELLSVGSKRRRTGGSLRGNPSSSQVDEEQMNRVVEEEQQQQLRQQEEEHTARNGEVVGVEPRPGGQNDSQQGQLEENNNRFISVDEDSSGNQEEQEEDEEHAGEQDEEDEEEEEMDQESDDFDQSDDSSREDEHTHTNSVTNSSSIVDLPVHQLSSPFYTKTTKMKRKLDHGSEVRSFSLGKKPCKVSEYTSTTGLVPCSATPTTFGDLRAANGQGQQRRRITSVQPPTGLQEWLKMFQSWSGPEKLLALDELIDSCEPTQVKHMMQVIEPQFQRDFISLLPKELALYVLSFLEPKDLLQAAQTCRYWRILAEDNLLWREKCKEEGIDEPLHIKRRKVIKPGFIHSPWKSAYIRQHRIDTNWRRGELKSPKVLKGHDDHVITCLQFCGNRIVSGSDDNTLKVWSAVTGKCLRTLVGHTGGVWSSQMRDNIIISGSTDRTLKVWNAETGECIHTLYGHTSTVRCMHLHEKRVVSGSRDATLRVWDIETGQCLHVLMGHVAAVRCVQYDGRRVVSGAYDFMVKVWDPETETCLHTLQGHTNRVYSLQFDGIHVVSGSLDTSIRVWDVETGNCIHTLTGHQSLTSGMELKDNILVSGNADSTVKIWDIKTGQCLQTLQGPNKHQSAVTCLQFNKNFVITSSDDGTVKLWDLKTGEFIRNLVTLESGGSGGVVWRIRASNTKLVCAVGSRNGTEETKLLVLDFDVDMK
UniProt P01106, whole entry: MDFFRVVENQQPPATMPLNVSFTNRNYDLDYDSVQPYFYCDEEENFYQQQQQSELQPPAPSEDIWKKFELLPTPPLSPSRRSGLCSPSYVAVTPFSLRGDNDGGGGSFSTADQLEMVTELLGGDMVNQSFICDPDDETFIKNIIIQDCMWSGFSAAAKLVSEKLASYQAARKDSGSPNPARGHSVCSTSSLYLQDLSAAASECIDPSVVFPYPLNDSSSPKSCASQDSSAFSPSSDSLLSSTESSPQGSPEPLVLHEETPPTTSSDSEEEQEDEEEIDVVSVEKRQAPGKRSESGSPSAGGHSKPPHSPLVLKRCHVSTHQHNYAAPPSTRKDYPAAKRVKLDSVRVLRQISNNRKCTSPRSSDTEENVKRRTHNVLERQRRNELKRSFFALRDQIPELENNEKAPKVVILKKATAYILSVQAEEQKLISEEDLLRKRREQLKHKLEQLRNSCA

Molecular target: HA-FBW7ΔDF(d231-324) (UniProt Q969H0)
Assay: proximity ligation

binding: binds
Substance: c-Myc (from UniProt P01106 1-454)
